Changes are numbered by the printed parent chain. In names and notes the source's numbering stands. Results are given in words; binding and its absence hold for the method and conditions named. Some entries that bind do so weakly or less than the wild type.
B1: 4B7 HC D62R (Fab, V domains shown)
VH: QVQLQQSGPGLVKPSQTLSLTCAISGDSVSSNSAAWSWIRQSPGRGLEWLGIIYKRSKWYNRYAVSVKSRITINPDTSKNQFSLQLNSVTPEDTAVYYCARWHSDKHWGFDYWGQGTLVTVSS
VL: DIVMTQSPLSLPVTPGEPASISCRSSQSLVFSDGNTYLNWYLQKPGQSPQLLIYKGSNRASGVPDRFSGSGSGTDFTLKISRVEAEDVGVYYCQQYDSYPLTFGQGTKVEIKR
B2: B9.7 (Fab, V domains shown)
VH: B1 VH with N32D, Y112D
VL: B1 VL with S32R, N35I
B3: gB9.7 (Fab, V domains shown)
VH: B1 VH with Q1E, N32D, G44S, K55Y, Y112D
VL: B1 VL with S32R, N35I
B4: B27.1 (Fab, V domains shown)
VH: B1 VH with N32D, Y112D
VL: B1 VL with N35T, D97T
B5: B41.2 (Fab, V domains shown)
VH: B1 VH with N32D, Y112D
VL: B1 VL with S32R, D33F, N35I
B6: B18.5 (Fab, V domains shown)
VH: B1 VH with N32D, R62Q, Y112D
VL: B1 VL with F31I, D33F, N35I
B7: B2.0 (Fab, V domains shown)
VH: B1 VH with N32D, Y112D
VL: B1 VL with S32R, D33F, N35I, D97T
B8: gB9.7-IgG (antibody, V domains shown)
VH: B1 VH with N32D, G44S, K55Y, Y112D
VL: B1 VL with S32R, N35I
B9: B32.5 (Fab, V domains shown)
VH: B1 VH with Y112D
VL: B1 VL with D33F, N35I
B10: 2A8 HC G33P (Fab, V domains shown)
VH: QVQLVESGGGLVQPGGSLRLSCAASGFTFRSYPMSWVRQAPGKGLEWVSSIRGSSSSTYYADSVKGRFTISRDNSKNTLYLQMNSLRAEDTAVYYCARKYRYWFDYWGQGTLVTVSS
VL: DIELTQPPSVSVAPGQTARISCSGDNLRNYYAHWYQQKPGQAPVVVIYYDNNRPSGIPERFSGSNSGNTATLTISGTQAEDEADYYCQSWDDGVPVFGGGTKLTVLG
B11: 2A8 HC S54F (Fab, V domains shown)
VH: B10 VH with P33G, S54F
VL: B10 VL
B12: 2A8 HC S31V (Fab, V domains shown)
VH: B10 VH with S31V, P33G
VL: B10 VL
B13: 2A8-200 (Fab, V domains shown)
VH: B10 VH with P33G, S35D, S55R, K99L
VL: B10 VL with Y48F, N51V, D91W
B14: 2A8 HC K99L (Fab, V domains shown)
VH: B10 VH with P33G, K99L
VL: B10 VL
B15: 2A8 HC S31P (Fab, V domains shown)
VH: B10 VH with S31P, P33G
VL: B10 VL
B16: 2A8 LC D91W (Fab, V domains shown)
VH: B10 VH with P33G
VL: B10 VL with D91W
B17: 2A8 HC S35D (Fab, V domains shown)
VH: B10 VH with P33G, S35D
VL: B10 VL
B18: 2A8-g216 (Fab, V domains shown)
VH: B10 VH with S31V, P33G, I51D, S55R, K99V
VL: SYELTQPPSVSVSPGQTARITCSGDNLPKYYAHWYQQKPGQAPVVVIFYDSNRPSGIPERFSGSNSGNTATLTISGTQAMDEADYYCQSWLSGTPWFGGGTKLTVLG
B19: 2A8-216 (Fab, V domains shown)
VH: B10 VH with S31V, P33G, I51D, S55R, K99V
VL: B10 VL with Y48F, D91L, V96W
B20: 2A8-143 (Fab, V domains shown)
VH: B10 VH with P33G, S35D, S55R, K99L
VL: B10 VL with Y48F, N51V, D91L, V96W
B21: 2A8-227 (Fab, V domains shown)
VH: B10 VH with P33G, S35D, K99L
VL: B10 VL with Y48F, D91L, V96W
B22: 2A8-g200 (Fab, V domains shown)
VH: B10 VH with Q1E, R30S, P33G, S35D, S55R, S56G, K99L
VL: B18 VL with S51V, S89A, L91W, G93S, W96V
B23: 2A8-127 (Fab, V domains shown)
VH: B10 VH with P33G, S35D, K99L
VL: B10 VL with Y48F, N51V, G56D, V96W
B24: 2A8 LC A32N (Fab, V domains shown)
VH: B10 VH with P33G
VL: B10 VL with A32N
B25: 2A8 HC I51E (Fab, V domains shown)
VH: B10 VH with P33G, I51E
VL: B10 VL
B26: 2A8 HC I51D (Fab, V domains shown)
VH: B10 VH with P33G, I51D
VL: B10 VL
B27: 2A8 LC Y48F (Fab, V domains shown)
VH: B10 VH with P33G
VL: B10 VL with Y48F
B28: 2A8 HC S55R (Fab, V domains shown)
VH: B10 VH with P33G, S55R
VL: B10 VL
B29: 2A8 HC K99V (Fab, V domains shown)
VH: B10 VH with P33G, K99V
VL: B10 VL
B30: 2A8 LC D91K (Fab, V domains shown)
VH: B10 VH with P33G
VL: B10 VL with D91K
B31: 2A8 LC N51V (Fab, V domains shown)
VH: B10 VH with P33G
VL: B10 VL with N51V
B32: 2A8 LC D91L (Fab, V domains shown)
VH: B10 VH with P33G
VL: B10 VL with D91L

Protein sequences, listed by entry. Tags and fused reporters are not part of them. Residues count along the entry.
UniProt O54819, residues 29-289: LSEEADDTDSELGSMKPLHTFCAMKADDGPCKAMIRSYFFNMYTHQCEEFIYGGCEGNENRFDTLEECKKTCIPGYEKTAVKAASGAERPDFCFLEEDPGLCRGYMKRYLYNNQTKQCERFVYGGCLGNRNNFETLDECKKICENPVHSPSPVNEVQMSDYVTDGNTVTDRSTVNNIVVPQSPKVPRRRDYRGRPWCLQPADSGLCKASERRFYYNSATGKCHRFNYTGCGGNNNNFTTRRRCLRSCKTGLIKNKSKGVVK
UniProt P10646, residues 29-304: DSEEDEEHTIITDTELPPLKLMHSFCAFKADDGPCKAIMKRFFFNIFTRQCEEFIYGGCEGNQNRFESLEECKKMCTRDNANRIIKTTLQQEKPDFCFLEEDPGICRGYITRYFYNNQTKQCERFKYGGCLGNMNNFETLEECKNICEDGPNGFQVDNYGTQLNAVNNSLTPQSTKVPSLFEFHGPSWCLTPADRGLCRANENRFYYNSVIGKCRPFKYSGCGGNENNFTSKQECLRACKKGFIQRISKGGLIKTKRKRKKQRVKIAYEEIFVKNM

The binders below were run against mouse TFPI (tissue factor pathway inhibitor) (mouse) (UniProt O54819) (assay: SPR (Biacore)).

binding	Binder
binds	B1
binds	B2
binds	B3
binds	B4
binds	B5
binds	B6
binds	B7
binds	B8
binds	B9
binds	B10
binds	B11
binds	B12
binds	B13
binds	B14
binds	B15
binds	B16
binds	B17
binds	B18
binds	B19
binds	B20
binds	B21
binds	B22
binds	B23

Each binder was assayed against human TFPI (tissue factor pathway inhibitor) (human) (UniProt P10646) (assay: SPR (Biacore)).

binding	Binder
binds	B1
binds	B2
binds	B3
binds	B4
binds	B5
binds	B6
binds	B7
binds	B8
binds	B9
binds	B10
binds	B11
binds	B12
binds	B13
binds	B24
binds	B14
binds	B15

binding	Binder
binds	B25
binds	B26
binds	B16
binds	B27
binds	B28
binds	B17
binds	B29
binds	B18
binds	B19
binds	B20
binds	B30
binds	B21
binds	B31
binds	B22
binds	B32
binds	B23

— patent publication US20120108796A1
